This note sets out measurements from paper PMC8270967.

The chains behind the UniProt entries cited, without tags or fusion partners. Where a name states a change or a piece, a line headed by the entry shows the natural chain unless it says otherwise.
UniProt Q9BY44: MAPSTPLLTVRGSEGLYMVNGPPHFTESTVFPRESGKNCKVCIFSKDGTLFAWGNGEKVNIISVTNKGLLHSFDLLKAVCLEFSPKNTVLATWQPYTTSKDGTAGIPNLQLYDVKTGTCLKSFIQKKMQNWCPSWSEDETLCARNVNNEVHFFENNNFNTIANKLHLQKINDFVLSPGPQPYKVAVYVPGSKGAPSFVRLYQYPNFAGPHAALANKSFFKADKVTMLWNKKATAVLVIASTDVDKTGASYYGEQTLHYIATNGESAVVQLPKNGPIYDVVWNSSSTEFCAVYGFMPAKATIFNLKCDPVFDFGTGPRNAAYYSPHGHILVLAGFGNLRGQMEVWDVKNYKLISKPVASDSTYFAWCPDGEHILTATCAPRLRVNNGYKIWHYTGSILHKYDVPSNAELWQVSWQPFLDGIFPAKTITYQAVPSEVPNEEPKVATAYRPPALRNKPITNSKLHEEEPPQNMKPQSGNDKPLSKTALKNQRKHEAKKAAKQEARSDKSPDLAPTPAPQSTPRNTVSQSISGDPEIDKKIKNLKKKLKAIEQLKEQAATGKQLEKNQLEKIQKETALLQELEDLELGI

No constants are given. Whether binding was seen depends on the method and setting. In cells and extracts the contact can be indirect. Binding calls can cover weak binding; strength is not graded here.

Experiment [1] has as its target T1, WD repeat domain 4 (WDR4), endogenous (human (endogenous in HCC cells)) (UniProt P57081).
T1 sequence: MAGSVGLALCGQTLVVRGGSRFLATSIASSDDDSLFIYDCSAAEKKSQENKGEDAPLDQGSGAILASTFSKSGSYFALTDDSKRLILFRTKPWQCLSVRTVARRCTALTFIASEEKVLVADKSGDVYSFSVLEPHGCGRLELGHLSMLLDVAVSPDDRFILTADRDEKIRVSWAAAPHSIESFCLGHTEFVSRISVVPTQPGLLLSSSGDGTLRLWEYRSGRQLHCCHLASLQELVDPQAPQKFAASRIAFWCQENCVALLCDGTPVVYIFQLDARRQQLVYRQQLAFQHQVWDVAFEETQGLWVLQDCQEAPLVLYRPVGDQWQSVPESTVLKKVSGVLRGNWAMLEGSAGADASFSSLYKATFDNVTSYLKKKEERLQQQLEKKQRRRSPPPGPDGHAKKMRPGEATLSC
The experiment is described as follows: co-IP; endogenous co-IP; performed as in ref. 33; which protein was precipitated is not told.

Experiment [2] addresses T2, WDR4, exogenous (transfected) (UniProt P57081).
T2 sequence: T1 sequence
Briefly: co-IP; exogenous co-IP; performed as in ref. 33; which protein was precipitated is not told.

Regarding EIF2A, endogenous (from UniProt Q9BY44), the binding result in experiment [1] is “binds”.
As for “EIF2A, exogenous (transfected) (from UniProt Q9BY44)”, the binding entry in experiment [2] is on record as “binds”.
